Experimental data reported in PubChem BioAssay AID1259415 (National Center for Advancing Translational Sciences (NCATS), 2018).
Where “and” joins values, the source holds several entries; their conditions need not be identical. Identical values can stand only once. Among all 410,000 compounds or so, about 18,000 (4.4%) were called active. This list was built around the results that the source calls inconclusive (neither active nor inactive); the mix of calls is not that of the screen. Cut-off read from the data, not from the text of the source: active = activity change below about -60%; inconclusive = no clear call, values can overlap the other calls; inactive = above about -39%. More than one record can exist for a structure, and the calls need not agree.

Experiment: qHTS Assay for inhibitors of the human cytomegalovirus (HCMV)
Conditions: HFF cells, HCMV-luciferase reporter, 72 h; at 57.5 µM; active compounds read low
Method in brief: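 Cell-based, HFFs, 1000 cells/well, 16 h 37C; cpds in DMSO + HCMV-luc, MOI 1 PFU/cell; 72 h 37C; OneGlo luminescence after 5 min RT; norm. to buffer vs Salinomycin 10uM.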
% is set by controls: 0 for no effect and ±100 for the full control effect.

SMILES | activity change, negative = inhibition
CN(C)CCCNS(=O)(=O)c1cc(Cl)c(Cl)cc1Cl | inconclusive: -55.9%
O=S(=O)(c1cccs1)N1CCC(CO)(Cc2ccc(Cl)cc2)CC1 | inactive: 21.4%
COc1ccc2cc(-c3[nH]ncc3CN3CCCC3c3nonc3C)ccc2c1 (stereo unspecified) | inactive: 0%
CCN(CC)c1ccc(CNc2nc3ccccc3n2CCN2CCOCC2)cc1 | inactive: -26.4%
Cn1cc(Cl)c(C(=O)NNC(=S)Nc2cccc(Cl)c2)n1 | inconclusive: -43.9%
O=[N+]([O-])c1cc(C(F)(F)F)ccc1NCCc1c[nH]c2ccc(O)cc12 | inconclusive: -46.2%
CN(C)CCCN(C(=O)c1ccc(S(=O)(=O)N(C)Cc2ccccc2)cc1)c1nc2cc3c(cc2s1)OCO3 | inconclusive: -49.8%
CCCCC[C@H]1CN(CCc2ccccc2)C(=O)[C@@H]1CC(=O)NCc1ccc(OC)cc1 | inconclusive: -53.2%
CCOc1ccccc1CNC(=O)CCC(=O)N1Cc2ccccc2Oc2ncccc21 | inconclusive: -49.2%
Cn1c(=O)c2c3c(sc2n2c(SCC(N)=O)nnc12)CC(C(C)(C)C)CC3 (stereo unspecified) | inconclusive: -55.7%
CCOc1ccc(CN(C)CC(=O)Nc2cc(OC)c([N+](=O)[O-])cc2C)cc1 | inactive: 10.5%
O=c1[nH]cnc2scc(-c3ccsc3)c12 | inconclusive: -57.7%
Nc1n[nH]c(N)c1N=Nc1cccc(F)c1 | inactive: 23.7%
O=[N+]([O-])c1ccccc1S(=O)(=O)N1CCN(C2CCCC2)CC1 | inconclusive: -55.1%
Cn1nc(C(F)(F)F)c(/C=N/OC(=O)c2ccccc2)c1Sc1ccc(Cl)cc1 | active: -63.4%
Cc1cccc(N(Cc2cc3ccccc3[nH]c2=O)C(=O)c2cccs2)c1 | inconclusive: -45.9%
CC(=O)c1ccc(-c2ccc(C(=O)Nc3nc(C)c(C(C)=O)s3)o2)cc1 | inconclusive: -41.3%
COc1ccc(C2N(C(C)=O)CCCN2S(=O)(=O)c2ccc(C)cc2)cc1 (stereo unspecified) | active: -62.2%
COc1ccccc1NC(=O)Cn1cncc1-c1ccc([N+](=O)[O-])cc1 | inconclusive: -45.6%
Cc1sc2nc(CSCC(=O)Nc3ccc(N4CCOCC4)cc3)[nH]c(=O)c2c1C | inconclusive: -51.4%
Cc1cccc(N2CCN(C(=O)c3ccc4c(c3)c(C)c(C)n4C)CC2C)c1 (stereo unspecified) | inactive: -17.6%

SMILES | activity change, negative = inhibition
O=C(NC(NCc1cccnc1)C(Cl)(Cl)Cl)c1cccc2ccccc12 (stereo unspecified) | inconclusive: -51.9%
CN(C)c1ccc(/C=N/NC(=O)c2ccc(Cl)cc2)cc1 | inconclusive: -46.3%
CCc1ccc(-n2nc(C)c3c(C(=O)Nc4cc(C)ccc4C)cc(C)nc32)cc1 | inactive: 3.08%
O=[N+]([O-])c1ccc(/C=[N+](\[O-])[C@@H]2CCCC[C@@H]2/[N+]([O-])=C/c2ccc([N+](=O)[O-])o2)o1 | active: -98.1%
Cc1cc(/C=N/Nc2ccc([N+](=O)[O-])cn2)c(C)n1-c1ccc(C(=O)O)cc1 | inactive: -4.49%
Cc1ccc(-c2nnc(Nc3cccc(C(F)(F)F)c3)c3ccccc23)cc1S(=O)(=O)N1CCOCC1 | inconclusive: -40.5%
CCC(=O)N(Cc1ccco1)Cc1cc2cc3c(cc2[nH]c1=O)OCO3 | inconclusive: -44.9%
Cc1cncn1CCc1nc2c3ccccc3nc(SCC(=O)Nc3ccccc3F)n2n1 | active: -67.1%
O=C(CNCc1ccco1)Nc1cccc(S(=O)(=O)N2CCCCC2)c1 | inactive: 39%
Cc1ccc(-n2c(SCC(N)=O)nc3c([nH]c4ccccc43)c2=O)cc1 | inconclusive: -40.4% and inconclusive: -47.4%
Cc1cc(C)cc(N(C)S(=O)(=O)c2nnc(NC(=O)C(C)C)s2)c1 | inconclusive: -40.3%
COc1ccc(/C(C)=N/NC(=S)NCCc2ccccc2)cc1 | active: -114%
O=C(Nc1ccc(F)c(Cl)c1)c1ccc2sc([C@@H]3O[C@H](CO)[C@H](O)[C@H](O)[C@H]3O)nc2c1 | inactive: 6.87%
COc1ccc(C(=O)Nc2ccc(N3CCOCC3)c(C(F)(F)F)c2)cc1OC | inconclusive: -41.9%
CCC(=O)N1CCN(c2nnc(-c3ccccc3)c3ccccc23)CC1 | inconclusive: -51.2%
COc1cccc(NC(=O)Cn2cc(C#N)c3ccccc32)c1 | inconclusive: -42.2%
Cc1cccc(NC(=O)CSc2nc(=O)n(Cc3cccnc3)c3c2CCC3)c1C | inactive: -3.46%
C(=C\c1ccccc1)/CN1CCN(C(CCc2ccccc2)c2nnnn2-c2ccc3c(c2)OCCO3)CC1 (stereo unspecified) | inactive: -9.16%
COc1cc(OC)c2cc(C(=O)N[C@@H](Cc3ccccc3)C(=O)O)n(C)c2c1 | inconclusive: -54.4%
O=C1NC[C@@H](Cc2cccc3ccccc23)N(CCC23CC4CC(CC(C4)C2)C3)C1=O | inconclusive: -41.3%
